# Measured values from paper PMC10585713.
# Results are given in words; binding and its absence hold for the method and conditions named. Where a sequence is shown, tags or fusion partners need not be part of it.
# Molecular target: Vitis vinifera B-box protein 44 (VvBBX44), fused to the Gal4 DNA-binding domain (Vitis vinifera 'Jingxiu')
# Experiment: two-hybrid; Clontech yeast two-hybrid system; AD-VvMYBA1 (pGADT7) with BD-VvBBX44 (pGBKT7); growth tested on SD/-Leu/-Trp and on SD/-Leu/-Trp/-His/-Ade with 40 mg/L X-alpha-Gal and 200 ng/mL AbA
binder,measurement,value
"VvMYBA1 (Vitis vinifera MYBA1), fused to the Gal4 activation domain (protein, UniProt Q6L9M9 1-250) MESLGVRKGAWIQEEDVLLRKCIEKYGEGKWHLVPLRAGLNRCRKSCRLRWLNYLKPDIKRGEFALDEVDLMIRLHNLLGNRWSLIAGRLPGRTANDVKNYWHSHHFKKEVQFQEEGRDKPQTHSKTKAIKPHPHKFSKALPRFELKTTAVDTFDTQVSTSRKPSSTSPQPNDDIIWWESLLAEHAQMDQETDFSASGEMLIASLRTEETATQKKGPMDGMIEQIQGGEGDFPFDVGFWDTPNTQVNHLI",binding,no binding
